# Reference: the supplement of paper PMC12889115
# This is one part of the list. Values are raw readings; no control value is given beside them.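 Primary screen: polymyxin B was added at a level permeabilizing Salmonella outer membranes while sparing inner membranes. DMSO wells, both with and without polymyxin B, established maximum growth. Plate-to-plate variation meant each plate was ranked on its own, and the lowest-OD600 compounds were selected as hits.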
# Test system: Salmonella enterica serovar Typhimurium SL1344
# Assay: bacterial growth OD600 after 18 h with compound and polymyxin B; higher = more bacterial growth (less inhibition)
# Details: 50 µM, Mueller-Hinton broth
Structure (SMILES),bacterial growth OD600 (polymyxin B 1 µg/mL),bacterial growth OD600 (polymyxin B 0.75 µg/mL)
CN(Cc1ccccc1)C(=O)c1nc2ccccn2c1CNCc1ccc(F)cc1F,0.016,
COCc1ccc(CN2CCCC(C(=O)c3cc(C)c(OC)c(C)c3)C2)o1 (stereo unspecified),0.759,
COc1ccc(C(=O)NC(C)c2cnn(-c3ccccc3C)c2C)cc1 (stereo unspecified),0.955,
Cc1cc(C)n(Cc2cc(C(=O)N(C)Cc3csc(C)n3)n[nH]2)n1,1.15,
CC1(C)Cc2c(cnn2-c2ccccc2)C(NC2CCOCC2)C1 (stereo unspecified),0.963,
COC(=O)CN(C)C(=O)CC1(c2ccccc2)CC(=O)N(CCCOc2cccnc2)C1=O (stereo unspecified),,0.913
CCOC(=O)C1(C/C=C/c2ccccc2)CCCN(C(=O)CCn2ccc(C)n2)C1 (stereo unspecified),0.025,
CCc1csc(CNC(=O)c2ccc(NC3CCC3)nc2)n1,0.805,
CSc1ccc(C(=O)NCc2nc(-c3ccc(NC(=O)Cc4ccccc4)cc3)oc2C)cc1,,0.862
CCCn1ncc(CN2CCN(Cc3ccccc3OCC)C(CCO)C2)c1C (stereo unspecified),1.01,
O[C@H]1CN(C/C=C/c2ccccc2)C[C@@H]1N1CCN(c2ccccn2)CC1,0.964,
CCC(C)C(=O)NCC1Cc2cccc(-c3ncccc3C)c2O1 (stereo unspecified),,0.795
CN(C)CCOc1cccc(CN(Cc2ccccn2)C(=O)Cc2ccc(F)cc2)c1,,0.842
C=CC[C@@H]1CC=C[C@@H](c2ccccc2)N1C(=O)CCC1(Cc2ccc(SC)cc2)CCC(=O)N1 (stereo partly specified),,0.001
COc1cc(NC(=O)CCC2CCCN(C(=O)CCN3CCCO3)C2)cc(OC)c1 (stereo unspecified),1,
Cc1nonc1C1CCCN1C(=O)c1ccc2nc(C3CCCCC3)oc2c1 (stereo unspecified),0.678,

Structure (SMILES),bacterial growth OD600 (polymyxin B 1 µg/mL),bacterial growth OD600 (polymyxin B 0.75 µg/mL)
CCC(O)C1CCN(C(=O)c2cc(COc3ccc(F)cc3F)on2)CC1 (stereo unspecified),0.965,
COCC1CCN(C(=O)CC(c2ccccc2)c2ccccc2Cl)CC1 (stereo unspecified),,0.254
CCCNCC1(O)CCCN(CC(C)(C)C)C1=O (stereo unspecified),,0.829
Cc1cc(C)n(CCC(=O)N2CCC(n3nccc3NC(=O)CC(C)C)CC2)n1,0.904,
COCCn1cc(C(=O)NCC2(c3ccccc3)CCCC2)c(=O)c(C(=O)N2C[C@@H](C)O[C@@H](C)C2)c1,,0.793
Cc1c(C(C)NC2CCCC2)cnn1-c1ccc(F)cc1F (stereo unspecified),0.938,
CCC(C)C(=O)NCC1Cc2cc(C)cc(-c3cc(C(C)=O)ccc3F)c2O1 (stereo unspecified),,0.718
Cc1ccc(-n2cccn2)c(CN2CCC(n3nccc3NC(=O)C3CC3)CC2)c1,0.857,
O=C(NC1CCCN(Cc2ccccc2F)C1)C1=CCCC1 (stereo unspecified),1.04,
CCCCC1CN(CCC(=O)NC(C)Cc2cncs2)Cc2ccccc2O1 (stereo unspecified),,0.817
COc1cc(NC(=O)CCC2CCCN(C(=O)CCN3CCCC3=O)C2)cc(OC)c1 (stereo unspecified),0.914,
O=C(c1cn[nH]c1)N1CCC(C2CCN(Cc3ccc(Cl)cc3)C2)CC1 (stereo unspecified),0.928,
CN1CCCCC1CCNC(=O)c1ccc(N2CCN(CC3CC3)CC2)nc1 (stereo unspecified),,0.826
CCOC(=O)C1(Cc2ccccc2)CCN(Cc2ccc(OC)c(OCC)c2)CC1,0.849,
O=C(c1ccc(N2CCOCC2)nc1)N1CCCC(c2ccccc2)CC1 (stereo unspecified),1.05,

# Reformatted: results already given
Structure (SMILES) | bacterial growth OD600 (polymyxin B 1 µg/mL) | bacterial growth OD600 (polymyxin B 0.75 µg/mL)
COCC1CCN(C(=O)CC(c2ccccc2)c2ccccc2Cl)CC1 (stereo unspecified) |  | 0.254
CCCNCC1(O)CCCN(CC(C)(C)C)C1=O (stereo unspecified) |  | 0.829
Cc1cc(C)n(CCC(=O)N2CCC(n3nccc3NC(=O)CC(C)C)CC2)n1 | 0.904 | 
COCCn1cc(C(=O)NCC2(c3ccccc3)CCCC2)c(=O)c(C(=O)N2C[C@@H](C)O[C@@H](C)C2)c1 |  | 0.793
Cc1c(C(C)NC2CCCC2)cnn1-c1ccc(F)cc1F (stereo unspecified) | 0.938 | 
CCC(C)C(=O)NCC1Cc2cc(C)cc(-c3cc(C(C)=O)ccc3F)c2O1 (stereo unspecified) |  | 0.718
Cc1ccc(-n2cccn2)c(CN2CCC(n3nccc3NC(=O)C3CC3)CC2)c1 | 0.857 | 
